# Screen size: about 320,000 compounds; about 22,000 (6.9%) were called active. This list was built around the results that the source calls inconclusive (neither active nor inactive); the mix of calls is not that of the screen. The call rests on the fitted dose curve; in most records, active means well fitted inhibition curve with a large enough effect; inconclusive means small, poorly fitted or top-dose-only effect, or another doubt; inactive means no such curve, though single readings can be large or run the other way. Where the call is inconclusive, the potency comes from a doubtful curve fit.
# Test: Primary qHTS for delayed death inhibitors of the malarial parasite plastid, 96 hour incubation
# Settings: P. falciparum luciferase reporter growth; series mostly up to 28.7 µM; activity change, negative = inhibition: at the top concentration
# In short: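 Plates of compound plus infected erythrocytes (2% hematocrit, 0.05% parasitemia final) incubate 96 hours, 37 C, 5% CO2. Detection reagent added; reduced luminescence from the parasites' luciferase reporter flags inhibition.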
# On the % scale 0 is the no-effect control and ±100 the full control effect; potency means the concentration at half of the fitted maximal effect.
SMILES,"activity change, negative = inhibition",Potency
CCN(CC)C(=O)C1CCCN(c2ccccc2[N+](=O)[O-])C1 (stereo not given),inactive: 40.3%,
COC(=O)C1=C(C)C(c2ccc(OC)cc2OC)NC(=O)N1 (stereo not given),inactive: -14.2%,
O=C(c1cc(F)ccc1F)C1CCCN(Cc2cccn2-c2ccccn2)C1 (stereo not given),,"inconclusive: 0.415 µM [inhibitor, full curve]"
COc1ccc(S(=O)(=O)N2CCN(C)CC2c2ccccc2)cc1 (stereo not given),,"inconclusive: 2.94 µM [inhibitor, full curve, poor fit]"
CC1(C)C2CCC1(CS(=O)(=O)NCc1ccc(C(F)(F)F)cc1)C(=O)C2 (stereo not given),inactive: 10.3%,
O=C(Oc1coc(CSc2nnc(NC(=O)C3CC3)s2)cc1=O)c1c(F)cccc1F,,"inconclusive: 3.29 µM [inhibitor, single point]"
Cc1cc(NC(=O)CCC2CCCC2)no1,inactive: 0.479%,
COc1ccc(S(=O)(=O)N2CCC(C(=O)NCCC(=O)Nc3ccc(Cl)cc3)CC2)cc1,,"inconclusive: 18.5 µM [inhibitor, single point]"
CC(C)C(=O)N1CCN(c2ccc(NC(=O)COc3ccccc3[N+](=O)[O-])cc2)CC1,,"inconclusive: 10.4 µM [inhibitor, single point]"
Cc1nn(-c2ccccc2)c(Cl)c1/C=N/NC(=O)c1ccc(CNc2ccccc2)o1,,"inconclusive: 10.4 µM [inhibitor, partial curve]"
Cc1nn(C)cc1CNC(=O)C1CCC(=O)N(CC2CCCCC2)C1 (stereo not given),,"inconclusive: 9.28 µM [inhibitor, partial curve]"
CNc1nc(-c2c(C)n(C)c3ccc(OC)cc23)cs1,,"inconclusive: 4.15 µM [inhibitor, partial curve, poor fit]"
O=C(Cn1nc(Cl)nc1Cl)c1ccc2c(c1)OCCO2,inactive: -20.5% [at 5.75 µM],
CCOc1cc(C(=O)NN=C2CCCC2)cc(OCC)c1OCC,,"inconclusive: 14.7 µM [inhibitor, single point]"
Cc1nc(C#N)c(N/N=C/c2c(F)cccc2Cl)o1,inactive: 29.8%,
O=C(NC1CCN(S(=O)(=O)c2ccccc2F)CC1)c1cccnc1,inactive: 0.0694%,
COc1cccc(CN(C)C(=O)CN2C(=O)NC3(CCCc4ccccc43)C2=O)c1 (stereo not given),,"inconclusive: 5.22 µM [inhibitor, partial curve, poor fit]"
OC(CNCCc1ccc(C(F)(F)F)cc1)COc1ccc2ccccc2c1 (stereo not given),,"inconclusive: 18.5 µM [inhibitor, single point]"
C=CCc1ccc(OCCCOc2ccc(C)c(C)c2)c(OC)c1,inactive: 4.52%,
Cc1cccc(N2CCN(C(=O)CN3C(=O)NC4(CCCCCC4)C3=O)CC2)c1C,,"inconclusive: 9.28 µM [inhibitor, partial curve, poor fit]"
CN(C)CCCN(C(=O)c1ccco1)c1nc2ccc(Cl)cc2s1,inactive: -16%,
Cc1ccc2cccc(OCc3ccc(Br)cc3)c2n1,,"inconclusive: 18.5 µM [inhibitor, single point]"
COc1cccc(C(=O)O/N=C2\CCS(=O)(=O)c3sccc32)c1,inactive: 3.2%,

# Reprinted at random: 3 compounds from above, in no set order.
SMILES,"activity change, negative = inhibition",Potency
CCOc1cc(C(=O)NN=C2CCCC2)cc(OCC)c1OCC,,"inconclusive: 14.7 µM [inhibitor, single point]"
O=C(Cn1nc(Cl)nc1Cl)c1ccc2c(c1)OCCO2,inactive: -20.5% [at 5.75 µM],
O=C(c1cc(F)ccc1F)C1CCCN(Cc2cccn2-c2ccccn2)C1 (stereo not given),,"inconclusive: 0.415 µM [inhibitor, full curve]"

# Further records follow:

SMILES,"activity change, negative = inhibition",Potency
CC(=O)OC(C(=O)N1CCOCC1)c1c(F)cccc1F (stereo not given),inactive: 41.1%,
CCC(C(=O)Nc1ccccc1F)n1nc(C)c2c(C)n(-c3ccccc3)nc2c1=O (stereo not given),,active: 14.7 µM
COc1ccc(C2(c3ccc(OC)cc3)NC(=O)N(CC(=O)Nc3ccccc3)C2=O)cc1,,"inconclusive: 18.5 µM [inhibitor, single point]"
O=C(N/N=C/c1ccc(OC(=O)c2ccccc2)cc1)c1cccnc1,,"inconclusive: 14.7 µM [inhibitor, single point]"
O=c1c2ccccc2nc(-c2ccccc2F)n1-c1ccccc1,,"inconclusive: 18.5 µM [inhibitor, single point]"
Cc1cccc(-n2c(-c3ccc([N+](=O)[O-])cc3)nc3ccccc3c2=O)c1,,"inconclusive: 18.5 µM [inhibitor, partial curve, poor fit]"
CC(C)c1ccc(OCC(O)CN2CCN(c3ccccn3)CC2)cc1 (stereo not given),inactive: 399%,
CCOC(=O)CCc1c(C)nc(-n2[nH]c(C)c(CCO)c2=O)[nH]c1=O,,"inconclusive: 0.0828 µM [inhibitor, full curve, poor fit]"
C#CCOCCOCCOCCNc1nc(N2CCN(C(=O)[C@H]([C@@H](C)CC)n3cc([C@@H](N)CC(C)C)nn3)CC2)nc(N2CCN(C(=O)[C@H](Cc3ccc(O)cc3)n3cc([C@@H](N)C(C)CC)nn3)CC2)n1 (stereo not given in full),,active: 5.22 µM
COc1ccc(C(=O)NC(C(=O)NCC(=O)Nc2c(C)cccc2C)C(C)C)cc1 (stereo not given),,"inconclusive: 6.57 µM [inhibitor, partial curve]"
COc1cc2c(cc1O)C(Cc1ccc(O)cc1)[N+](C)([O-])CC2 (stereo not given),inactive: 23.3%,
O=Nc1c(O)n(Cc2cccc(Cl)c2)c2ccccc12,,"inconclusive: 8.28 µM [inhibitor, single point]"
NC(=O)C1CCN(C2CC(=O)N(c3ccc(F)c(Cl)c3)C2=O)CC1 (stereo not given),inactive: 44.9%,
O=c1[nH]c2ccccc2cc1CN(CC1CCCO1)S(=O)(=O)c1ccc(Cl)cc1 (stereo not given),inactive: 13.2%,
CCn1nc(C)c(CNC(=O)CC2C(=O)NCCN2CC(C)(C)C)c1C (stereo not given),inactive: -4.1%,
CCOc1cc(S(=O)(=O)Nc2ccc(Cl)cn2)ccc1Cl,inactive: -18.3%,
CCOC(=O)C1CCN(C(=O)CN(c2ccc(OC)cc2)S(=O)(=O)c2c(C)nn(C)c2C)CC1,,active: 7.38 µM
O=C(c1noc2c1CCCC2)N1CCN(c2ccc(F)cc2)CC1,,"inconclusive: 5.86 µM [inhibitor, partial curve]"
O=C1c2cccnc2C(=O)N1Cc1ccc(S(=O)(=O)N2CCN(c3ccc(Cl)cc3)CC2)cc1,,"inconclusive: 0.0928 µM [inhibitor, full curve, poor fit]"
C=CCNC(=O)N[C@@H](Cc1ccccc1)C(=O)OC,,"inconclusive: 0.0657 µM [inhibitor, full curve, poor fit]"
C/C(=N\N1CCN(c2ccccc2)CC1)c1ccccc1O,,"inconclusive: 10.4 µM [inhibitor, single point]"
CC1CCC(C(C)C)C(OC(=O)Cn2c(-c3ccc(Cl)cc3)[n+](C)c3ccccc32)C1 (stereo not given),,"inconclusive: 2.62 µM [inhibitor, full curve]"
